Test results taken from patent publication US20160262923A1, “INTRAUTERINE DELIVERY SYSTEM” (BAYER OY, priority 2013, published 2016).
At least one compound was matched to its structure with a doubt left.

Legend:
[1] = test system: Uterine bleeding; assay: Comparison study in monkey, IUS vehicle vs LNG vs NP, uterine bleeding; format: in vivo, cynomolgus macaques
Procedure: Animal Treatments: Adult cycling cynomolgus macaques were monitored to record regular menstrual cycles. Uterine bleeding was assessed daily by vaginal swabs (for sporadic vaginal spotting) and menstrual blood loss by vaginal tampons. After 2 menstrual cycles (˜60 days), the animals were assigned to treatment groups and laparotomized between days 6-8 (ideally day 7) of the follicular phase and an IUS was inserted by hysterotomy into the uterine lumen and sutured in place. Treatment IUS was as follows (n=5-6/group): • Group 1: Vehicle IUS • Group 2: 2 μg/day LNG • Group 3: 5 μg/day LNG • Group 4: 2 μg/day NP • Group 5: 5 μg/day NP Classification of bleeddings: Bleedings were grouped in three categories: a) positive swap or frank menses, which is the most heavy form of bleeding (BB, red colour), b) light positive swab, which is an intermediated type of bleeding (B, purple colour) and c) spot positive swab, which is a very light form of bleeding (S, orange colour). For evaluation of bleeding days, the first 7 days after insertion of the IUS were neglected, because the surgical insertion procedure already causes some bleedings in these days, which is unrelated progestin effects. FIGS. 2 and 3 and Tables 1 and 2 illustrate a comparison of 2 μg/d LNG release with 5 μg/d LNG release for 80 days with the IUS for each animal.

[2] = test system: menstrual bleeding; conditions: women treated with 8 μg/d LNG compared to 2 μg/d; cited from earlier work

For `C#C[C@]1(O)CC[C@H]2[C@@H]3CCC4=CC(=O)CC[C@@H]4[C@H]3CC[C@@]21CC` [LNG, levonorgestrel, reference compound], the “bleeding compared to vehicle IUS group” value ([1]; 2 μg/d release group) is listed as “on average less bleedings than the vehicle group”, the “bleeding compared to vehicle IUS group” value ([1]; 5 μg/d release group) is listed as “markedly less bleeding” and the “decrease in menstrual bleeding” value [2] is listed as “greater decrease in menstrual bleeding”.
